# Data: the supplement of paper PMC5836539
# By UniProt entry, the sequences of proteins in these tests, tags left out. Where a name states a change or a piece, a line headed by the entry shows the natural chain unless it says otherwise.
# UniProt Q5T4S7, whole entry, looked up: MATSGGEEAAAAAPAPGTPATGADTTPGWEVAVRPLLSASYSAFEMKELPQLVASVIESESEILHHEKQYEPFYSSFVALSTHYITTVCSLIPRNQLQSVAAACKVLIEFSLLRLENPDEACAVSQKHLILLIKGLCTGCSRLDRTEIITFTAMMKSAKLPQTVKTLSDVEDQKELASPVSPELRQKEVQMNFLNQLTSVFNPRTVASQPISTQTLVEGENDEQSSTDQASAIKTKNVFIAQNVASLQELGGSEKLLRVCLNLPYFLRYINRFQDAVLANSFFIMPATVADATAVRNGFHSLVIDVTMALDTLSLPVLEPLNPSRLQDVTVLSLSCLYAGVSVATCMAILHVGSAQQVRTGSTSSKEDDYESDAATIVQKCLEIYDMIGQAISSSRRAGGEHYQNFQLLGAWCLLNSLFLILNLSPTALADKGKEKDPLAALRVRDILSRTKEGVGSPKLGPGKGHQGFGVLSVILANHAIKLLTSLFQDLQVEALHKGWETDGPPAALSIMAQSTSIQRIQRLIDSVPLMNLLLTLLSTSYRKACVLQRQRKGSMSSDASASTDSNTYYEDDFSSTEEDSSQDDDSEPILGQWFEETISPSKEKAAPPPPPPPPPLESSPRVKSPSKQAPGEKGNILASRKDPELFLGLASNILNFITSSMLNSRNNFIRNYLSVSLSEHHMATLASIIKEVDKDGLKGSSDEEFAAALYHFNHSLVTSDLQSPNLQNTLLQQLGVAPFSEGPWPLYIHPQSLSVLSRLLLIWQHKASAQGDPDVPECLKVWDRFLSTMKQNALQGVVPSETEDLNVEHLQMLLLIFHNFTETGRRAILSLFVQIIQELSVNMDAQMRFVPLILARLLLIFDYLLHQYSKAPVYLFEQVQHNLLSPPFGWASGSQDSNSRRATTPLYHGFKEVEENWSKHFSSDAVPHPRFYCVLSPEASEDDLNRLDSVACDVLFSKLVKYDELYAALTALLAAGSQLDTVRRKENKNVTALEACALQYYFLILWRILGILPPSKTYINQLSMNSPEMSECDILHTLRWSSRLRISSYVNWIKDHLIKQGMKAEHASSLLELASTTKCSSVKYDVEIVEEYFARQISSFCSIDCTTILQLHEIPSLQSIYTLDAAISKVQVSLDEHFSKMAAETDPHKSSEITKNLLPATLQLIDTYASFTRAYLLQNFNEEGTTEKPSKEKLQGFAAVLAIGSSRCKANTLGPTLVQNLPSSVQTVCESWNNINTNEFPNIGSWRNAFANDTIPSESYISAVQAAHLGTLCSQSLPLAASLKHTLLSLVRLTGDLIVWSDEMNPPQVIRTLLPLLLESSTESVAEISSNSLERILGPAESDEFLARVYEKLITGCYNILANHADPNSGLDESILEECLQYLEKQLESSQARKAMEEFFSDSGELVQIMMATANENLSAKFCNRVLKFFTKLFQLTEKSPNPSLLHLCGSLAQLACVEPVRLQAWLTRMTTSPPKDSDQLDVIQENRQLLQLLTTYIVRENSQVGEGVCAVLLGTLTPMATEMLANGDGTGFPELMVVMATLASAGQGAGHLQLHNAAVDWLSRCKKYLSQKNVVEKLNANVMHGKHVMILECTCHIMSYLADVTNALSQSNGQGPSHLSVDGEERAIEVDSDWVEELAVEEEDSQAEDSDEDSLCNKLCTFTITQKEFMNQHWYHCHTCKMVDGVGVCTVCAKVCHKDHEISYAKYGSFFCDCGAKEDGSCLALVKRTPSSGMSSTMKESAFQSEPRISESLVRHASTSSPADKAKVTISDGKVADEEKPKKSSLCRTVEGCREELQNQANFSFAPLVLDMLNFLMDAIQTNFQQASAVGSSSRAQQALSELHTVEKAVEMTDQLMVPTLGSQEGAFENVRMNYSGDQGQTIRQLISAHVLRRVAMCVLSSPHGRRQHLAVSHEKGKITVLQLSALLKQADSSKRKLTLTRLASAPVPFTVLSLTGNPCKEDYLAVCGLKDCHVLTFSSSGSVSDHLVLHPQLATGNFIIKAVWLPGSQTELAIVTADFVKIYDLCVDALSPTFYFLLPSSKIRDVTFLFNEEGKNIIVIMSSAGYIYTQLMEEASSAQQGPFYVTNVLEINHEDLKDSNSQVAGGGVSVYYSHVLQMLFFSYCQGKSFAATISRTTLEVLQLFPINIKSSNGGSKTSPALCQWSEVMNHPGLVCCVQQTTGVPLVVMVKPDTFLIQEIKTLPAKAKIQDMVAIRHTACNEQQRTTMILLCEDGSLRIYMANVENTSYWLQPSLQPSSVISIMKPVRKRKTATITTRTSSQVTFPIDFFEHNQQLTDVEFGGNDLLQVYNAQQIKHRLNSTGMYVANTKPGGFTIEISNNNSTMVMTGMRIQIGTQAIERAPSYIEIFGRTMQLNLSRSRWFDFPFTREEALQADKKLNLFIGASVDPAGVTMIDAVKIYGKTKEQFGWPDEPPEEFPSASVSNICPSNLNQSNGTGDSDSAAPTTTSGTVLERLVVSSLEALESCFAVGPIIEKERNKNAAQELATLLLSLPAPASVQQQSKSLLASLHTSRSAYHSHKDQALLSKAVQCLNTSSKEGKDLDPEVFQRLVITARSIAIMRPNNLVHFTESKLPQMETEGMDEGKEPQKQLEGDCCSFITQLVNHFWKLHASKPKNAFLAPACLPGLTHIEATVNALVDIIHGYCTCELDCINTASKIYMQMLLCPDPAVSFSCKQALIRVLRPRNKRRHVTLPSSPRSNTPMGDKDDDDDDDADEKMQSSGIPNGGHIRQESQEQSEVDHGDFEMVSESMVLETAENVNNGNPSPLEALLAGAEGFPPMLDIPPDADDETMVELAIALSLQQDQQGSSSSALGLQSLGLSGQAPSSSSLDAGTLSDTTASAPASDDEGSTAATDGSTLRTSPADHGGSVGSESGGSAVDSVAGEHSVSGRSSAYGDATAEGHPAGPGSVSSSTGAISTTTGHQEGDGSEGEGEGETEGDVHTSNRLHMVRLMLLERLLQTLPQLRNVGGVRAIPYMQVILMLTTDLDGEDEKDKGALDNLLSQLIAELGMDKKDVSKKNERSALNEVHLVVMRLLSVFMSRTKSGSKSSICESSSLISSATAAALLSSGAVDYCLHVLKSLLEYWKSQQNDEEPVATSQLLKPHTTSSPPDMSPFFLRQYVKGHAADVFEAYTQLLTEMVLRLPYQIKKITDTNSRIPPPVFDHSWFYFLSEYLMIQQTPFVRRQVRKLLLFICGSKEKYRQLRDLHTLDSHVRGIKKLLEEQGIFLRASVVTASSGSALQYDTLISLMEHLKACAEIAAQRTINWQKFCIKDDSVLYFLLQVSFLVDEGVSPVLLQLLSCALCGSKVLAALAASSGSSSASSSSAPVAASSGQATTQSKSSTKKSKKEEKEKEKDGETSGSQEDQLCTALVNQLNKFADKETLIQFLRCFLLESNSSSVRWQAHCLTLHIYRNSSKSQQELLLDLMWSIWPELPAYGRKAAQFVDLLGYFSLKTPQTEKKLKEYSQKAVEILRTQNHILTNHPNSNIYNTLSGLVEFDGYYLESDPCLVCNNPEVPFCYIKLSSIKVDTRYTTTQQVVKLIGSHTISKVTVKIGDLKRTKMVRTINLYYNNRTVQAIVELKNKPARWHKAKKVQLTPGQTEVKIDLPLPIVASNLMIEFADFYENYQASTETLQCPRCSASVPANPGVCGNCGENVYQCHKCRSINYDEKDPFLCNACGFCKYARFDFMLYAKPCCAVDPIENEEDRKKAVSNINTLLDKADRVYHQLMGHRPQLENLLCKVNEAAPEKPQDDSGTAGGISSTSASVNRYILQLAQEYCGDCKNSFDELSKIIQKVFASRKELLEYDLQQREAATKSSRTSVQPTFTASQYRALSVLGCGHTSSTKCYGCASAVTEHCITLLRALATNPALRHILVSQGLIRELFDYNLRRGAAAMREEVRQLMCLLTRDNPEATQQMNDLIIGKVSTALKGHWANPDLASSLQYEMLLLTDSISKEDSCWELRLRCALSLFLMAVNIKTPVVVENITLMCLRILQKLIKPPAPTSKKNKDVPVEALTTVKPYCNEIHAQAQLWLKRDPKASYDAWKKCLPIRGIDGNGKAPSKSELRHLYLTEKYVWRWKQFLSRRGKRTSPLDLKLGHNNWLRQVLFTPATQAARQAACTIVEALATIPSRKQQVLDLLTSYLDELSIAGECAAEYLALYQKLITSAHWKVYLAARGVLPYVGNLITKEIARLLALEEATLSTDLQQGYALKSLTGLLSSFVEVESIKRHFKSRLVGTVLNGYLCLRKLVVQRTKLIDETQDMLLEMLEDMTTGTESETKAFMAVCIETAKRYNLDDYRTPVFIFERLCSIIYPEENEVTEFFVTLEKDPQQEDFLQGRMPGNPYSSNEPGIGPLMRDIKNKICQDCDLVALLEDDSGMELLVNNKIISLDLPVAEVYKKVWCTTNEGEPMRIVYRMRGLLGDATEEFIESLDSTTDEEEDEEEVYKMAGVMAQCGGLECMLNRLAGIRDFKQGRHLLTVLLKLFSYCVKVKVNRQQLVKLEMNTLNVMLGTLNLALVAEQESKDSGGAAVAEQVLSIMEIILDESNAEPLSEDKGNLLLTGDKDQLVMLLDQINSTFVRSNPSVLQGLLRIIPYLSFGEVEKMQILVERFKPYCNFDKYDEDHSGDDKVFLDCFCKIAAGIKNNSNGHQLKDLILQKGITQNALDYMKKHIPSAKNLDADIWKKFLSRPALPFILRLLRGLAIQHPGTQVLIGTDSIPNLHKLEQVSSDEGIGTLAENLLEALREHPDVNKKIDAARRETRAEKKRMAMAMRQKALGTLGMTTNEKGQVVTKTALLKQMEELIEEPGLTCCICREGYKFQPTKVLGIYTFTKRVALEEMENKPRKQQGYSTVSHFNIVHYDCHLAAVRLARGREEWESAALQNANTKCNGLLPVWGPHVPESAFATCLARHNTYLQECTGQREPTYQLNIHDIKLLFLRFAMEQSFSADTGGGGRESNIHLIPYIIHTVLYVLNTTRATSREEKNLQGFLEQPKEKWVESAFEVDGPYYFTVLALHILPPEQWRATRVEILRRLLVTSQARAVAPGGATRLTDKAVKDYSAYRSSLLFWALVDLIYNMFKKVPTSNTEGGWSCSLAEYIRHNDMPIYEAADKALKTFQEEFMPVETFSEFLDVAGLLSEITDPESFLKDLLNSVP
# UniProt Q6NYC8: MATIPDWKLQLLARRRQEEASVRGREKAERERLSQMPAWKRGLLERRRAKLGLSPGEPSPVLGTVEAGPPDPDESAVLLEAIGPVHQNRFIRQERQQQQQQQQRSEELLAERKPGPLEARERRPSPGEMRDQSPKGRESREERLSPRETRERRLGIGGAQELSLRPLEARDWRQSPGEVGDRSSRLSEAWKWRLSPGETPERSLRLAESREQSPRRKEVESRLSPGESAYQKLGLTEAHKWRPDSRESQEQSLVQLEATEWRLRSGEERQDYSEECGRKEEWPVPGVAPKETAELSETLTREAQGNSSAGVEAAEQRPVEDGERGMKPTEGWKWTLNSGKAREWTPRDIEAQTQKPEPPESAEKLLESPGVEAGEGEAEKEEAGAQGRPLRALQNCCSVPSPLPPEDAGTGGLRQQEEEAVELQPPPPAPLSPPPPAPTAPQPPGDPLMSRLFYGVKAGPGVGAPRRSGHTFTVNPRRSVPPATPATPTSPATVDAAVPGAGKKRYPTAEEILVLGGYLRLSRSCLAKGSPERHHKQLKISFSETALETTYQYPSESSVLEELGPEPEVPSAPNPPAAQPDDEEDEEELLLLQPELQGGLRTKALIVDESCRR
# UniProt Q9C040: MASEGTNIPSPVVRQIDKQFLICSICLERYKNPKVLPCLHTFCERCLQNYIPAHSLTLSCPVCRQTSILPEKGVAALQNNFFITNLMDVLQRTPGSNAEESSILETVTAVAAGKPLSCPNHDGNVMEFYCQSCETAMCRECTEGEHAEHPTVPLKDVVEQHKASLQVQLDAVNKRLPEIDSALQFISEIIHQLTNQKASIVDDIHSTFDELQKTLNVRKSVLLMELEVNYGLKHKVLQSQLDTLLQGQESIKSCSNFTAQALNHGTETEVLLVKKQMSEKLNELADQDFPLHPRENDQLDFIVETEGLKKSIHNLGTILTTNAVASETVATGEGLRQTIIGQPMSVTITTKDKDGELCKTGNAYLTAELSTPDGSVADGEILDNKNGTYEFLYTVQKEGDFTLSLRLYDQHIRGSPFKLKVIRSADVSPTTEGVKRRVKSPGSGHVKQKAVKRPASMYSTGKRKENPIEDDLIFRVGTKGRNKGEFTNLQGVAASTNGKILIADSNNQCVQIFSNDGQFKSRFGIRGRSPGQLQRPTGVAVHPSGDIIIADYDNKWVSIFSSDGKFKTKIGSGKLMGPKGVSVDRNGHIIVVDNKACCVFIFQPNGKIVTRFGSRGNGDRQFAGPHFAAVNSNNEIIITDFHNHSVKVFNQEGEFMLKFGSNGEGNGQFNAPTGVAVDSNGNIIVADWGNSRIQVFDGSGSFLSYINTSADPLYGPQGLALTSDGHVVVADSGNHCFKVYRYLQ
# ± gives the standard deviation of the averaged measurements. Single values are uncertain here, since repeats match poorly.
# What was measured:
# XL888 [1] = compound: T1, CC[C@@H](C)Nc1cc(C(=O)N[C@H]2C[C@H]3CC[C@@H](C2)N3c2ccc(C(=O)C3CC3)cn2)c(C)cc1C(N)=O [XL888]; test: phosphopeptide melting temperature shift (XL888 minus DMSO); higher = stabilised by drug treatment; settings: 100 µM; treatment time 2 h; layout: intact cells; SK-Mel 28
# Procedure: (§1)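 Phospho-TPP in intact SK-Mel 28 cells treated with 100 uM XL888 or DMSO for 2 h, heated at 10 temperatures (37-67 C) for 3 min, soluble fraction TMT10plex-labelled and TiO2 phospho-enriched. Melting curves were fitted per phosphopeptide; the value is the melting point difference (drug minus vehicle) in each of two biological replicates.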
# XL888 [2] = compound: T1, XL888; test: as above; settings: 100 µM; treatment time 2 h; layout: intact cells; SK-Mel 24
# Procedure: as §1, with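 “24” for “28”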
Target,phosphopeptide melting temperature shift (XL888 [1]),phosphopeptide melting temperature shift (XL888 [2])
UniProt P60174-1_phosphosite_21 (phosphosite position: 21),0.253 ± 0.069 °C,0.689 ± 0.27 °C
UniProt P62258_phosphosite_210 (phosphosite position: 210),-0.156 ± 0.2 °C,0.714 °C
UniProt P83916_phosphosite_89 (phosphosite position: 89),1.04 ± 0.64 °C,1.01 ± 0.33 °C
UniProt P85037-2_phosphosite_50 (phosphosite position: 50),0.841 °C,0.949 °C
UniProt P85037-2_phosphosite_282 (phosphosite position: 282),1.23 ± 0.42 °C,2.81 °C
UniProt Q5JSH3-2_phosphosite_403 (phosphosite position: 403),1.27 °C,0.881 °C
UniProt Q5JTD0-4_phosphosite_225 (phosphosite position: 225),1.56 °C,1.44 °C
UniProt Q5JTH9-2_phosphosite_980 (phosphosite position: 980),2.75 ± 2.6 °C,0.735 °C
UniProt Q5SSJ5-2_phosphosite_13 (phosphosite position: 13),2.09 °C,1.47 °C
UniProt Q5T1M5-2_phosphosite_946 (phosphosite position: 946),0.481 ± 0.86 °C,1.36 °C
UniProt Q5T4S7-3_phosphosite_1760 (phosphosite position: 1760),-0.104 ± 0.6 °C,-0.982 ± 0.085 °C
UniProt Q5T4S7-3_phosphosite_2730 (phosphosite position: 2730),0.519 °C,1 ± 1 °C
UniProt Q5T4S7-3_phosphosite_2735 (phosphosite position: 2735),0.157 ± 0.53 °C,1.04 °C
UniProt Q5TCZ1-2_phosphosite_354 (phosphosite position: 354),1.49 °C,0.631 °C
UniProt Q5TDH0-2_phosphosite_106 (phosphosite position: 106),0.58 ± 0.33 °C,-0.146 °C
UniProt Q5VSL9_phosphosite_59 (phosphosite position: 59),0.531 ± 0.56 °C,0.226 ± 0.46 °C
UniProt Q6A1A2_phosphosite_214 (phosphosite position: 214),0.0232 ± 0.14 °C,-0.897 ± 0.061 °C
UniProt Q6ICG6-3_phosphosite_233 (phosphosite position: 233),3.67 °C,-1.32 °C
UniProt Q6ICG6-3_phosphosite_245 (phosphosite position: 245),1.29 ± 0.22 °C,4.79 °C
UniProt Q6ICG6-3_phosphosite_259 (phosphosite position: 259),0.811 °C,1.49 °C
UniProt Q6ICG6-3_phosphosite_328 (phosphosite position: 328),1.27 ± 0.7 °C,0.528 ± 1.4 °C
UniProt Q6IQ49-3_phosphosite_183 (phosphosite position: 183),1.86 ± 1.7 °C,0.183 °C
UniProt Q6KC79-2_phosphosite_2658 (phosphosite position: 2658),3.45 °C,0.787 °C
UniProt Q6NYC8_phosphosite_145 (phosphosite position: 145),1.27 ± 0.43 °C,0.674 °C
UniProt Q6P6C2-3_phosphosite_53 (phosphosite position: 53),-1.59 ± 0.43 °C,-2.3 °C
UniProt Q6PJT7-5_phosphosite_490 (phosphosite position: 490),3.04 °C,0.365 °C
UniProt Q7Z5K2_phosphosite_77 (phosphosite position: 77),0.785 ± 0.29 °C,1.24 °C
UniProt Q7Z6E9-2_phosphosite_1294 (phosphosite position: 1294),2.29 °C,0.215 °C

# Some of the entries so far, bar-delimited:
Target | phosphopeptide melting temperature shift (XL888 [1]) | phosphopeptide melting temperature shift (XL888 [2])
UniProt Q6ICG6-3_phosphosite_245 (phosphosite position: 245) | 1.29 ± 0.22 °C | 4.79 °C
UniProt Q6ICG6-3_phosphosite_259 (phosphosite position: 259) | 0.811 °C | 1.49 °C
UniProt Q6ICG6-3_phosphosite_328 (phosphosite position: 328) | 1.27 ± 0.7 °C | 0.528 ± 1.4 °C
UniProt Q6IQ49-3_phosphosite_183 (phosphosite position: 183) | 1.86 ± 1.7 °C | 0.183 °C
UniProt Q6KC79-2_phosphosite_2658 (phosphosite position: 2658) | 3.45 °C | 0.787 °C

# Additional records.

Target,phosphopeptide melting temperature shift (XL888 [1]),phosphopeptide melting temperature shift (XL888 [2])
UniProt Q7Z6Z7-2_phosphosite_1907 (phosphosite position: 1907),1.49 ± 0.39 °C,0.511 °C
UniProt Q08AD1-2_phosphosite_1121 (phosphosite position: 1121),2.53 ± 0.72 °C,0.218 °C
UniProt Q8IUD2-4_phosphosite_21 (phosphosite position: 21),3.78 °C,-0.404 °C
UniProt Q8IWS0-5_phosphosite_121 (phosphosite position: 121),-5.1 °C,3.81 °C
UniProt Q8IZP0-2_phosphosite_178 (phosphosite position: 178),0.994 °C,0.0735 ± 0.61 °C
UniProt Q8IZP0-2_phosphosite_220 (phosphosite position: 220),-0.577 ± 0.31 °C,0.204 °C
UniProt Q8ND56-2_phosphosite_183 (phosphosite position: 183),-0.278 ± 0.14 °C,0.183 ± 1 °C
UniProt Q8ND56-2_phosphosite_192 (phosphosite position: 192),0.581 ± 0.75 °C,1.08 ± 0.9 °C
UniProt Q8ND56-2_phosphosite_216 (phosphosite position: 216),0.597 °C,-0.015 ± 0.73 °C
UniProt Q8NDI1-3_phosphosite_987 (phosphosite position: 987),1.55 °C,0.276 ± 0.29 °C
UniProt Q8TDZ2-2_phosphosite_531 (phosphosite position: 531),1.69 ± 0.75 °C,1.54 ± 1.8 °C
UniProt Q8WUA7-3_phosphosite_85 (phosphosite position: 85),-0.225 ± 0.077 °C,1.2 ± 0.49 °C
UniProt Q8WWM7-6_phosphosite_594 (phosphosite position: 594),-0.315 ± 1.2 °C,-0.44 °C
UniProt Q8WYL5-4_phosphosite_585 (phosphosite position: 585),-1.11 °C,-1.72 °C
UniProt Q8WYL5-4_phosphosite_625 (phosphosite position: 625),1.41 ± 2.3 °C,0.357 °C
UniProt Q9BTA9-5_phosphosite_64 (phosphosite position: 64),0.534 ± 0.49 °C,0.905 °C
UniProt Q9BTL3_phosphosite_36 (phosphosite position: 36),1.66 ± 1 °C,1.6 °C
UniProt Q9BUR4_phosphosite_90 (phosphosite position: 90),0.681 ± 0.052 °C,0.137 °C
UniProt Q9BV36_phosphosite_337 (phosphosite position: 337),1.3 ± 0.42 °C,1.61 °C
UniProt Q9BVG4_phosphosite_181 (phosphosite position: 181),0.657 ± 0.54 °C,1.43 °C
UniProt Q9BVG4_phosphosite_197 (phosphosite position: 197),1.28 ± 0.74 °C,0.535 °C
UniProt Q9BZZ5-2_phosphosite_464 (phosphosite position: 464),0.0414 ± 0.67 °C,0.378 ± 0.23 °C
UniProt Q9C0D5-2_phosphosite_164 (phosphosite position: 164),0.654 ± 1.7 °C,0.559 °C
UniProt Q9C040_phosphosite_440 (phosphosite position: 440),0.611 ± 0.74 °C,0.535 ± 0.28 °C
UniProt Q9GZR7-2_phosphosite_82 (phosphosite position: 82),2.36 °C,-0.546 °C
UniProt Q9H6Z4-3_phosphosite_40 (phosphosite position: 40),2.19 ± 0.35 °C,-1.19 °C
UniProt Q9H7D7-3_phosphosite_121 (phosphosite position: 121),2.04 ± 0.26 °C,2.5 °C
